The list does not hold the whole screen: it gathers tests that were run many times, whatever their T/C, doses with no T/C, and many T/C values between a quarter and a half above the control. Further doses and runs are listed elsewhere. T/C gives the treated animals as a percentage of the vehicle group. Some entries give survivors of the animals treated and no T/C: the source holds a T/C of zero for them, seemingly a mark for toxic or unscored doses. Some survivor counts are full or nearly so, which does not show that the dose was tolerated: survival well below the control is almost never listed, so the zero probably covers shortened survival too. Survivors were counted at the toxicity check, usually on the fifth day, unless a day is given; later deaths do not show. Schedule codes are those of the source, taken here to give the interval after Q, in days (D) or hours (H), and the number of doses after X. Some schedule codes hold Z or #, which are not explained here. Some doses were run more than once; their values stand side by side, smallest first. For survival time, this PubChem deposit counts one and a half times the control or more as active, and values a quarter to a half above the control carry no call in these data; other NCI protocols may use other cut-offs. Some T/C values carry the count of animals alive at the toxicity check (mostly the fifth day); where none is given, no animal had died by that day.
System: L1210 leukemia ip in BDF1 mice, survival T/C
Test: NCI In Vivo Anticancer Drug Screen. Data for tumor model L1210 Leukemia (intraperitoneal) in B6D2F1 (BDF1) mice
Conditions: T/C endpoint: mean survival time, higher T/C = longer survival
[1] = dose: 400.0 mg/kg/injection, schedule: Q01DX009 (ip), vehicle: Klucel (hydroxypropylcellulose) (HPC)
[2] = dose: 300.0 mg/kg/injection, schedule: Q01DX001 (ip), vehicle: other
[3] = dose: 400.0 mg/kg/injection, schedule: Q01DX001 (ip), vehicle: saline
[4] = dose: 400.0 mg/kg/injection, schedule: Q04DX002 (ip), vehicle: saline
[5] = dose: 200.0 mg/kg/injection, schedule: Q01DX009 (ip), vehicle: saline
[6] = dose: 200.0 mg/kg/injection, schedule: Q04DX003 (ip), vehicle: Klucel (hydroxypropylcellulose) (HPC)
[7] = dose: 400.0 mg/kg/injection, schedule: Q04DX003 (ip), vehicle: Klucel (hydroxypropylcellulose) (HPC)
[8] = dose: 400.0 mg/kg/injection, schedule: Q04DX003 (ip), vehicle: saline
[9] = dose: 200.0 mg/kg/injection, schedule: Q04DX003 (ip), vehicle: saline with Tween-80
[10] = dose: 400.0 mg/kg/injection, schedule: Q04DX003 (ip), vehicle: saline with Tween-80
[11] = dose: 100.0 mg/kg/injection, schedule: Q01DX009 (ip), vehicle: Klucel (hydroxypropylcellulose) (HPC)

CCC(C(C)N1CC(=O)NC(=O)C1)N1CC(=O)NC(=O)C1 (configuration not stated)
T/C (dose: 0.25 mg/kg/injection, schedule: Q01DX009 (ip), vehicle: Klucel (hydroxypropylcellulose) (HPC)): 138 % of control
T/C (dose: 1.0 mg/kg/injection, schedule: Q01DX009 (ip), vehicle: Klucel (hydroxypropylcellulose) (HPC)): 143 % of control
T/C (dose: 2.0 mg/kg/injection, schedule: Q04DX003 (ip), vehicle: Klucel (hydroxypropylcellulose) (HPC)): 142 % of control [9 of 10 alive]
T/C (dose: 4.0 mg/kg/injection, schedule: Q04DX003 (oral), vehicle: Klucel (hydroxypropylcellulose) (HPC)): 145 % of control
survivor count (dose: 8.0 mg/kg/injection, schedule: Q01DX009 (ip), vehicle: Klucel (hydroxypropylcellulose) (HPC)): 10 of 10
T/C (dose: 16.0 mg/kg/injection, schedule: Q04DX003 (oral), vehicle: Klucel (hydroxypropylcellulose) (HPC)): 128 % of control
T/C (dose: 32.0 mg/kg/injection, schedule: Q04DX003 (oral), vehicle: Klucel (hydroxypropylcellulose) (HPC)): 136 % of control [9 of 10 alive]
survivor count (dose: 128.0 mg/kg/injection, schedule: Q04DX003 (oral), vehicle: Klucel (hydroxypropylcellulose) (HPC)): 9 of 10

CCCCN1C(=O)C2CC=C3C=CN4C(C3C2C1=O)C1C(=O)N(CCCC)C(=O)C1C41CC(=O)N(CCCC)C1=O (configuration not stated)
survivor count [1]: 6 of 6

O=C(O)C1C(C(=O)O)C2(c3ccccc3)c3ccccc3C12 (configuration not stated)
survivor count (dose: 75.0 mg/kg/injection, schedule: Q01DX001 (ip), vehicle: other): 1 of 6
survivor count (dose: 150.0 mg/kg/injection, schedule: Q01DX001 (ip), vehicle: other): 0 of 6
survivor count [2]: 1 of 6

Cc1c[n+]([O-])ccc1N=NN(C)c1ccccc1C
survivor count (dose: 100.0 mg/kg/injection, schedule: Q04DX002 (ip), vehicle: saline with Tween-80): 3 of 3
survivor count (dose: 400.0 mg/kg/injection, schedule: Q04DX002 (ip), vehicle: saline with Tween-80): 0 of 3

N#CC12OC1(C#N)C(=O)C=CC2=O (configuration not stated)
survivor count (dose: 100.0 mg/kg/injection, schedule: Q01DX001 (ip), vehicle: saline): 0 of 3
survivor count (dose: 200.0 mg/kg/injection, schedule: Q01DX001 (ip), vehicle: saline): 0 of 3
survivor count [3]: 0 of 3

O=C(OCc1ccccc1)C1CCCN1 (configuration not stated)
survivor count [4]: 0 of 3

COC(C#N)(Cc1ccccc1)Cc1ccccc1
survivor count [2]: 0 of 6

COc1cc(C)c(CN(C)C)c(OC)c1
survivor count (dose: 18.0 mg/kg/injection, schedule: Q01DX Z (ip), vehicle: methylcellulose (MC)): 6 of 6
survivor count (dose: 40.0 mg/kg/injection, schedule: Q01DX Z (ip), vehicle: methylcellulose (MC)): 6 of 6
survivor count (dose: 60.0 mg/kg/injection, schedule: Q01DX Z (ip), vehicle: methylcellulose (MC)): 5 of 6

Cn1c(O)c(N)c(=O)n(C)c1=O
survivor count [5]: 2 of 3

O/N=C/c1ccc(Cl)cc1
survivor count [3]: 2 of 4

CC(C)NNC(C)Cc1ccccc1 (configuration not stated)
survivor count [6]: 2 of 4
survivor count [7]: 0 of 4

CCCCCCCCCCCCCCCCCC1=NC(C)CC(C)(C)O1 (configuration not stated)
survivor count [8]: 2 of 6

O=[N+]([O-])c1c[c]([Hg][Cl])c(O)[c]([Hg][Cl])c1
survivor count (dose: 100.0 mg/kg/injection, schedule: Q04DX003 (ip), vehicle: saline with Tween-80): 3 of 6
survivor count [9]: 0 of 6
survivor count [10]: 0 of 6

C=C1C(O)CC2CC1C2(C)C (configuration not stated)
survivor count [10]: 0 of 6

C#CCOC1CCCCO1 (configuration not stated)
survivor count (dose: 150.0 mg/kg/injection, schedule: Q01DX009 (ip), vehicle: saline): 3 of 6
survivor count (dose: 200.0 mg/kg/injection, schedule: Q04DX003 (ip), vehicle: saline): 3 of 6
survivor count (dose: 225.0 mg/kg/injection, schedule: Q01DX009 (ip), vehicle: saline): 1 of 6
survivor count (dose: 335.0 mg/kg/injection, schedule: Q01DX009 (ip), vehicle: saline): 0 of 6
survivor count [8]: 0 of 6

CC[N+](C)(C)C
survivor count (dose: 100.0 mg/kg/injection, schedule: Q04DX002 (ip), vehicle: saline): 2 of 3
survivor count (dose: 200.0 mg/kg/injection, schedule: Q04DX002 (ip), vehicle: saline): 0 of 3
survivor count [4]: 0 of 3

Cc1nn(CCO)c(C)c1N=[N+]([O-])c1c(C)nn(CCO)c1C
survivor count (dose: 50.0 mg/kg/injection, schedule: Q01DX009 (ip), vehicle: saline): 4 of 7
survivor count (dose: 70.0 mg/kg/injection, schedule: Q01DX009 (ip), vehicle: saline): 4 of 7
survivor count [11]: 6 of 6

O=C(CBr)Nc1ccc(S(=O)(=O)F)cc1
survivor count (dose: 37.5 mg/kg/injection, schedule: Q04DX003 (ip), vehicle: carboxymethylcellulose (CMC)): 2 of 6
survivor count (dose: 75.0 mg/kg/injection, schedule: Q04DX003 (ip), vehicle: carboxymethylcellulose (CMC)): 0 of 6
survivor count (dose: 150.0 mg/kg/injection, schedule: Q01DX001 (ip), vehicle: carboxymethylcellulose (CMC)): 0 of 6
survivor count (dose: 300.0 mg/kg/injection, schedule: Q01DX001 (ip), vehicle: carboxymethylcellulose (CMC)): 0 of 6

O=C(NCc1ccncc1)Nc1ccccc1F
survivor count [11]: 1 of 3
survivor count (dose: 400.0 mg/kg/injection, schedule: Q01DX001 (ip), vehicle: Klucel (hydroxypropylcellulose) (HPC)): 2 of 6
survivor count [1]: 0 of 3 and 6 of 6
survivor count (dose: 400.0 mg/kg/injection, schedule: Q04DX002 (ip), vehicle: Klucel (hydroxypropylcellulose) (HPC)): 1 of 6 and 1 of 3
survivor count [7]: 2 of 6

NC1Cc2ccccc2C1
survivor count [5]: 1 of 6
survivor count [8]: 0 of 6

CCN(CC)CCCOC(=O)N(Cc1ccc(Cl)cc1)C1CC1
survivor count (dose: 100.0 mg/kg/injection, schedule: Q01DX009 (ip), vehicle: saline with Tween-80): 3 of 6
survivor count [9]: 2 of 6
survivor count [10]: 0 of 6

CN=C(NC)c1ccc(NC(=O)c2cc(OC)cc(C(=O)Nc3ccc(C(=NC)NC)cc3)c2)cc1
survivor count (dose: 15.0 mg/kg/injection, schedule: Q01DX Z (ip), vehicle: saline): 2 of 6
survivor count (dose: 30.0 mg/kg/injection, schedule: Q01DX Z (ip), vehicle: saline): 0 of 6
survivor count (dose: 60.0 mg/kg/injection, schedule: Q01DX Z (ip), vehicle: saline): 0 of 6
survivor count (dose: 120.0 mg/kg/injection, schedule: Q01DX Z (ip), vehicle: saline): 0 of 6

CC(C)N(CCSC(=O)N1c2ccccc2Sc2cccnc21)C(C)C
survivor count (dose: 10.0 mg/kg/injection, schedule: Q04DX003 (ip), vehicle: Klucel (hydroxypropylcellulose) (HPC)): 3 of 6
survivor count (dose: 20.0 mg/kg/injection, schedule: Q04DX003 (ip), vehicle: Klucel (hydroxypropylcellulose) (HPC)): 1 of 6
survivor count (dose: 40.0 mg/kg/injection, schedule: Q04DX003 (ip), vehicle: Klucel (hydroxypropylcellulose) (HPC)): 0 of 6
survivor count (dose: 100.0 mg/kg/injection, schedule: Q04DX003 (ip), vehicle: Klucel (hydroxypropylcellulose) (HPC)): 0 of 6
survivor count [6]: 0 of 6
survivor count [7]: 0 of 6

O=C(Nc1cc(Cl)c(Cl)cc1NC(=O)C(Cl)(Cl)Cl)C(Cl)(Cl)Cl
survivor count (dose: 20.0 mg/kg/injection, schedule: Q01DX001 (ip), vehicle: other): 2 of 4
survivor count (dose: 40.0 mg/kg/injection, schedule: Q01DX001 (ip), vehicle: other): 0 of 4
survivor count (dose: 80.0 mg/kg/injection, schedule: Q01DX001 (ip), vehicle: other): 0 of 4
survivor count (dose: 100.0 mg/kg/injection, schedule: Q01DX001 (ip), vehicle: other): 0 of 4
survivor count (dose: 200.0 mg/kg/injection, schedule: Q01DX001 (ip), vehicle: other): 0 of 4
survivor count (dose: 400.0 mg/kg/injection, schedule: Q01DX001 (ip), vehicle: other): 0 of 4

Reference: PubChem BioAssay AID248 (DTP/NCI, 2004)
